Experimental data taken from patent US8309586B2, “Glucokinase activators and pharmaceutical compositions containing the same as an active ingredient” (LG Life Sciences Ltd., priority 2007, dated 2012).
For at least one compound, name, drawing or mass did not settle the structure.

Test system: Glucokinase known as hexokinase IV (human GK isoform 1, pancreas form and human GK isoform 2, liver form)
Assay: Glucokinase enzymatic activity assay (G6PDH-coupled, NADH absorbance at 340 nm)
Type: biochemical
Details: 5 mM glucose, 1 mM ATP, 37 nM GK, 10 min at room temperature
Description: Glucokinase known as hexokinase IV (human GK isoform 1, pancreas form and human GK isoform 2, liver form) was cloned into an expression vector pET15 fx (Novagen Co.), transformed to E. coli BL21 (DE3) (Invitrogen Co.) strain, expressed, and purified using a nickel column. Then, the glucokinase obtained from dialysis was used in the following assay.
Glucokinase assay was performed by measuring absorbance according to the conventional manner. Briefly speaking, glucokinase converts the substrate glucose to glucose-6-phosphate under certain conditions, and glucose-6-phosphate dehydrogenase irreversibly converts glucose-6-phosphate to gluconate-6-phosphate. During this procedure, NADH is formed, and its absorbance is measured to calculate the enzymatic activity.
In the measurement of the enzymatic activity, each compound was diluted by two-fold from the maximum to the minimum concentrations, and 2 μl of each solution was added to 96 well UV plate (BD bioscience). 60 μl of the first mixture (final concentrations 25 mM Hepes, 25 mM KCl, 2 mM MgCl2, 1 mM DTT) was added, and thoroughly mixed. 38 μl of the enzyme mixture (final concentrations 1 mM ATP, 1 mM NAD, 5 mM glucose, 0.85U G6PDH, 37 nM GK) was added (final volume 100 μl), and the mixture was reacted for 10 min at room temperature. The absorbance of NADH was measured at 340 nm using a UV spectrometer (Molecular Device).
The enzyme activating abilities of the compounds according to the present invention are represented as AC1.5 (the compound concentration at which the enzymatic activity is increased by 1.5 times, nM), which is in the range of 0.001 uM to 30 uM or less, preferably 0.001 uM to 10 uM, more preferably 0.001 uM to 1 uM.

Row | SMILES | AC1.5 (the compound concentration at which the enzymatic activity is increased by 1.5 times)
1 | Clc1cc(NC2CCCC2)c2[nH]c(C3=N[C@H](CCN4CCOCC4)CS3)cc2c1 [Example 95, {5-chloro-2-[(R)-4-(2-morpholin-4-yl-ethyl)-4,5-dihydro-thiazol-2-yl]-1H-indol-7-yl}-cyclopentyl-amine] | 11 nM
2 | OC[C@@H]1CSC(c2cc3cccc(NC4CCOCC4)c3[nH]2)=N1 [Example 2, {(R)-2-[7-(tetrahydro-pyran-4-ylamino)-1H-indol-2-yl]-4,5-dihydro-thiazol-4-yl}-methanol] | 41 nM
3 | OC[C@@H]1CSC(c2cc3cccc(NC4CCCC4)c3[nH]2)=N1 [Example 1, [(R)-2-(7-cyclopentylamino-1H-indol-2-yl)-4,5-dihydro-1,3-thiazol-4-yl]-methanol] | 22 nM
